Values quoted from earlier work as cited in patent publication EP1335967B1, “CLEANING COMPOSITIONS” (UNILEVER N.V., priority 2000, dated 2002).

Details: grams of solid to form a saturated solution in 100g of deionised water at 20°C

NC(N)=O [Urea]
Water Solubility (g/100g): >100 g/100g
